These are yes or no findings as the source states them, for the method shown. Some binding calls cover weakened binding; strength is not graded here.
Legend:
[1] = biological target: T1, active human TNF-α full length protein (human, UniProt P01375 77-233); assay: ELISA, TNF-α coated, sdAb in four 10-fold dilutions from 1 µg/mL, Experiment 4
[2] = biological target: T1, active human TNF-α full length protein; assay: ELISA, TNF-α coated
[3] = biological target: T1, active human TNF-α full length protein; assay: ELISA, TNF-α coated, sdAb 1 µg/mL, Experiment 1
[4] = biological target: T1, active human TNF-α full length protein; assay: ELISA, wells coated with 0.5 µg/mL TNF-α against non-coated wells

Chains of the proteins cited; added tags and fusions are not shown. Residues count along the entry.
UniProt P01375, residues 77-233: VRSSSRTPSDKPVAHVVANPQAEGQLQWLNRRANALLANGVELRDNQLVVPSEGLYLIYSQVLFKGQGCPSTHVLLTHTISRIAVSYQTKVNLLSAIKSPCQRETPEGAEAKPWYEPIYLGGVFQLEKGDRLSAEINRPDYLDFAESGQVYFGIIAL

Measured: binding

B1: anti-TNF-alpha VHH69 (SEQ ID NO:46) sdAb (VHH)
VHH: EVQLVESGGGSVLAGGSLRLSCVASGFTSRYNYMAWFRQAPGKEREGVATIGTASGSADYYGSVKDRFTISQDNAKNTVYLQMNSLKPEDTAMYYCAARTYGTISLTPSDYRYWGQGTLVTVSS
binds: all assays above
